In the supplement of paper PMC11546906:
Where a name gives a salt, the structure may show the parent alone. Some of the results follow. Repeats in this data set agree poorly, so a single value says little.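 FDA-approved drugs were each paired with colistin at one-eighth its MIC and screened against a multidrug-resistant, mcr-1-positive clinical E. coli isolate, with OD600 read after 24 h. Drug-free bacteria served as growth control, plain broth as blank. Combinations were active if OD600 dropped below 0.2.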

System: Escherichia coli 42 (mcr-1-positive clinical isolate)
Assay: OD600 after 24 h growth with compound plus colistin (absorbance units (OD600)); higher = more bacterial growth (less inhibition)
Conditions: first compound 25 µM; colistin concentration 0.5 ug/mL; incubation time 24 h; 37 °C

Row | Structure (SMILES) | OD600
1 | CN1C2CCCC1CC(NC(=O)c1nn(C)c3ccccc13)C2 (centres undefined) [Granisetron hydrochloride] + CCC(C)CCCC(=O)N[C@@H](CCN)C(=O)N[C@H](C(=O)N[C@@H](CCN)C(=O)N[C@H]1CCNC(=O)[C@H]([C@@H](C)O)NC(=O)[C@H](CCN)NC(=O)[C@H](CCN)NC(=O)[C@H](CC(C)C)NC(=O)[C@@H](CC(C)C)NC(=O)[C@H](CCN)NC1=O)[C@@H](C)O [colistin] | inactive: 1.11
2 | CCCCc1oc2ccc(NS(C)(=O)=O)cc2c1C(=O)c1ccc(OCCCN(CCCC)CCCC)cc1 [Dronedarone hydrochloride] + CCC(C)CCCC(=O)N[C@@H](CCN)C(=O)N[C@H](C(=O)N[C@@H](CCN)C(=O)N[C@H]1CCNC(=O)[C@H]([C@@H](C)O)NC(=O)[C@H](CCN)NC(=O)[C@H](CCN)NC(=O)[C@H](CC(C)C)NC(=O)[C@@H](CC(C)C)NC(=O)[C@H](CCN)NC1=O)[C@@H](C)O [colistin] | inactive: 0.93
3 | CC(=O)N(O)CCCCCNC(=O)CCC(=O)N(O)CCCCCNC(=O)CCC(=O)N(O)CCCCCN [Deferoxamine Mesylate] + CCC(C)CCCC(=O)N[C@@H](CCN)C(=O)N[C@H](C(=O)N[C@@H](CCN)C(=O)N[C@H]1CCNC(=O)[C@H]([C@@H](C)O)NC(=O)[C@H](CCN)NC(=O)[C@H](CCN)NC(=O)[C@H](CC(C)C)NC(=O)[C@@H](CC(C)C)NC(=O)[C@H](CCN)NC1=O)[C@@H](C)O [colistin] | inactive: 0.846
4 | CN[C@H](CC(C)C)C(=O)N[C@H]1C(=O)N[C@@H](CC(N)=O)C(=O)N[C@H]2C(=O)N[C@H]3C(=O)N[C@H](C(=O)N[C@H](C(=O)O)c4cc(O)cc(O)c4-c4cc3ccc4O)[C@H](O)c3ccc(c(Cl)c3)Oc3cc2cc(c3O[C@@H]2O[C@H](CO)[C@@H](O)[C@H](O)[C@H]2O[C@H]2C[C@](C)(N)[C@H](O)[C@H](C)O2)Oc2ccc(cc2Cl)[C@H]1O [Vancomycin hydrochloride] + CCC(C)CCCC(=O)N[C@@H](CCN)C(=O)N[C@H](C(=O)N[C@@H](CCN)C(=O)N[C@H]1CCNC(=O)[C@H]([C@@H](C)O)NC(=O)[C@H](CCN)NC(=O)[C@H](CCN)NC(=O)[C@H](CC(C)C)NC(=O)[C@@H](CC(C)C)NC(=O)[C@H](CCN)NC1=O)[C@@H](C)O [colistin] | inactive: 0.806
5 | CC(C)(C(=O)c1cccnc1)c1cccnc1 [Metyrapone] + CCC(C)CCCC(=O)N[C@@H](CCN)C(=O)N[C@H](C(=O)N[C@@H](CCN)C(=O)N[C@H]1CCNC(=O)[C@H]([C@@H](C)O)NC(=O)[C@H](CCN)NC(=O)[C@H](CCN)NC(=O)[C@H](CC(C)C)NC(=O)[C@@H](CC(C)C)NC(=O)[C@H](CCN)NC1=O)[C@@H](C)O [colistin] | inactive: 0.818
6 | COc1cc(CNC(=O)CCCC/C=C\C(C)C)ccc1O [(Z)-Capsaicin] + CCC(C)CCCC(=O)N[C@@H](CCN)C(=O)N[C@H](C(=O)N[C@@H](CCN)C(=O)N[C@H]1CCNC(=O)[C@H]([C@@H](C)O)NC(=O)[C@H](CCN)NC(=O)[C@H](CCN)NC(=O)[C@H](CC(C)C)NC(=O)[C@@H](CC(C)C)NC(=O)[C@H](CCN)NC1=O)[C@@H](C)O [colistin] | inactive: 0.891
7 | CN(C)c1nc(N(C)C)nc(N(C)C)n1 [Altretamine] + CCC(C)CCCC(=O)N[C@@H](CCN)C(=O)N[C@H](C(=O)N[C@@H](CCN)C(=O)N[C@H]1CCNC(=O)[C@H]([C@@H](C)O)NC(=O)[C@H](CCN)NC(=O)[C@H](CCN)NC(=O)[C@H](CC(C)C)NC(=O)[C@@H](CC(C)C)NC(=O)[C@H](CCN)NC1=O)[C@@H](C)O [colistin] | inactive: 1.15
8 | CCN(Cc1ccncc1)C(=O)C(CO)c1ccccc1 (centres undefined) [Tropicamide] + CCC(C)CCCC(=O)N[C@@H](CCN)C(=O)N[C@H](C(=O)N[C@@H](CCN)C(=O)N[C@H]1CCNC(=O)[C@H]([C@@H](C)O)NC(=O)[C@H](CCN)NC(=O)[C@H](CCN)NC(=O)[C@H](CC(C)C)NC(=O)[C@@H](CC(C)C)NC(=O)[C@H](CCN)NC1=O)[C@@H](C)O [colistin] | inactive: 1.14
9 | C[C@@H]1O[C@@H]1P(=O)(O)O [Fosfomycin sodium] + CCC(C)CCCC(=O)N[C@@H](CCN)C(=O)N[C@H](C(=O)N[C@@H](CCN)C(=O)N[C@H]1CCNC(=O)[C@H]([C@@H](C)O)NC(=O)[C@H](CCN)NC(=O)[C@H](CCN)NC(=O)[C@H](CC(C)C)NC(=O)[C@@H](CC(C)C)NC(=O)[C@H](CCN)NC1=O)[C@@H](C)O [colistin] | inactive: 0.887
